We go through 1 molecule from PMC8547449.

Chains of the proteins cited; added tags and fusions are not shown. Residues count along the entry.
UniProt W0T1Y4, residues 42-358: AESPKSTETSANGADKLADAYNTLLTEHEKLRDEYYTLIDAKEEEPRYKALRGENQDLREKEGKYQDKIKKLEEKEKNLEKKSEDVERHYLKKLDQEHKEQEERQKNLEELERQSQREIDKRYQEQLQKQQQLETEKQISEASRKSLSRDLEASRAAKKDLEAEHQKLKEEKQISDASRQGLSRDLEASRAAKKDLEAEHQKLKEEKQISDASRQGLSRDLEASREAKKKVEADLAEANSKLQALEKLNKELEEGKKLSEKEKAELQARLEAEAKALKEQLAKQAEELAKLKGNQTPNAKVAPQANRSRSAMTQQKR
UniProt P16947, residues 42-354: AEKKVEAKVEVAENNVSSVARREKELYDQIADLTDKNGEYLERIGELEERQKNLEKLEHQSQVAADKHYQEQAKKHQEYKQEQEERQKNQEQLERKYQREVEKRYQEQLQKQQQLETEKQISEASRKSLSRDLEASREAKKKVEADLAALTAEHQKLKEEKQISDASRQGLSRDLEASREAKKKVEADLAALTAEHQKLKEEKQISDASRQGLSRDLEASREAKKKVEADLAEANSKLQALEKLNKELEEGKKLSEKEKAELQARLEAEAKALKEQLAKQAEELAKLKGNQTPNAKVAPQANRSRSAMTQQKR

These are yes or no findings as the source states them, for the method shown. In cells and extracts the contact can be indirect. These calls come from enrichment with a bait or labelling near it, and not all partners need be listed.

The target in test [1] is M28 protein, recombinant, affinity-tagged (Streptococcus pyogenes) (UniProt W0T1Y4). Kind of test: affinity purification with mass spectrometry; 20 μg affinity-tagged M protein on Strep-Tactin Sepharose beads, 100 μl pooled normal human plasma, 37°C 1 h, washed with ice-cold PBS, eluted with 5 mM biotin; DIA-MS, hits filtered against sfGFP (log2 enrichment >1, adjusted P 0.05); only the target purified.

Test [2] concerns the target M49 protein, recombinant, affinity-tagged (Streptococcus pyogenes) (UniProt P16947). The description is as above.

B1: vitamin K-dependent protein S (protein, UniProt P07225 42-676)
chain: ANSLLEETKQGNLERECIEELCNKEEAREVFENDPETDYFYPKYLVCLRSFQTGLFTAARQSTNAYPDLRSCVNAIPDQCSPLPCNEDGYMSCKDGKASFTCTCKPGWQGEKCEFDINECKDPSNINGGCSQICDNTPGSYHCSCKNGFVMLSNKKDCKDVDECSLKPSICGTAVCKNIPGDFECECPEGYRYNLKSKSCEDIDECSENMCAQLCVNYPGGYTCYCDGKKGFKLAQDQKSCEVVSVCLPLNLDTKYELLYLAEQFAGVVLYLKFRLPEISRFSAEFDFRTYDSEGVILYAESIDHSAWLLIALRGGKIEVQLKNEHTSKITTGGDVINNGLWNMVSVEELEHSISIKIAKEAVMDINKPGPLFKPENGLLETKVYFAGFPRKVESELIKPINPRLDGCIRSWNLMKQGASGIKEIIQEKQNKHCLVTVEKGSYYPGSGIAQFHIDYNNVSSAEGWHVNVTLNIRPSTGTGVMLALVSGNNTVPFAVSLVDSTSEKSQDILLSVENTVIYRIQALSLCSDQQSHLEFRVNRNNLELSTPLKIETISHEDLQRQLAVLDKAMKAKVATYLGGLPDVPFSATPVNAFYNGCMEVNINGVQLDLDEAISKHNDIRAHSCPSVWKKTKNS
As to B1, the binding entry in test [1] and in test [2] was “binds” in each case.
